Reference: patent US9523679B2, “Chromophore compositions and methods of making and using the same” (Becton, Dickinson and Company, priority 2013, dated 2016)
Some of these results come from one statement about several compounds together.

Molecular target: T1, apomyoglobin (Homo sapiens, UniProt P02144)
T1 construct: histidine tag (from pVEXHN vector; Ni-NTA purification) (N); made in house; host or cells: E. coli BL21
T1 sequence (P02144 1-154): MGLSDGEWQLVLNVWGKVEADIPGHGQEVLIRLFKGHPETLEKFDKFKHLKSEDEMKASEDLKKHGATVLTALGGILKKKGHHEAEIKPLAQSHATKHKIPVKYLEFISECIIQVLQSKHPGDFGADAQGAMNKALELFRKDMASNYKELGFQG
Experiment: Fluorescence of squaraine dyes in aqueous solution in the presence and absence of apomyoglobin
Conditions: 630 to 700 nm range

Row | Substance | increase in fluorescence upon binding to apomyoglobin
1 | bis-squaraine | greater than 50 fold
2 | mono-squaraine | greater than 50 fold
